In all, about 1,600 compounds were measured (“plate-normalized OD600 growth (mean of duplicates)”: median about 0.31, lowest 2% from about 0.23 on). This is one part of the list.
System: Escherichia coli BW25113
Test: plate-normalized OD600 growth (mean of duplicates) (OD600 (normalized)); higher = more growth (less inhibition)
Details: 10 µM
Description: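 E. coli BW25113 in LB (100 µl, 96-well, no shaking) was exposed to 10 µM of each compound (here the ChemBridge subset of a ~30,000-member library) and grown at 37°C for 24 h or 15°C for 48 h, in duplicate. Growth was read as OD600 and the duplicate ODs were normalized across screening plates to correct plate-to-plate variation.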

SMILES | plate-normalized OD600 growth (temperature: 15°C, 48 h) | plate-normalized OD600 growth (temperature: 37°C, 24 h)
CCN(CCN(C)C)Cc1ccc(NC(C)=O)cc1 | 0.234 | 0.652
O=C(O)CC(NC(=O)c1ccccc1)c1ccccc1 (stereo unspecified) | 0.25 | 0.626
CCC(C(=O)Nc1c(C)cc(C)cc1C)N1CCCCCC1 (stereo unspecified) | 0.243 | 0.643
O=C(CCN1C(=O)c2ccccc2C1=O)NCc1ccco1 | 0.255 | 0.646
CC1CCN(C(=O)c2ccc(C(C)(C)C)cc2)CC1 | 0.257 | 0.627
O=c1[nH]c(/C=C/c2ccc(Cl)cc2Cl)c([N+](=O)[O-])c(=O)[nH]1 | 0.248 | 0.609
C=CCn1c(SC(C)CC)nc(O)cc1=O (stereo unspecified) | 0.258 | 0.618
CSc1ccc(CN2CCC(C(N)=O)CC2)cc1 | 0.28 | 0.641
CC(C)(C)c1ccccc1OCCCSC#N | 0.233 | 0.622
COc1ccc(C(=O)NN2CCOCC2)cc1OC | 0.253 | 0.604
COc1ccc([N+](=O)[O-])cc1NCc1cc(OC)c2c(c1)OCO2 | 0.24 | 0.616
O=[N+]([O-])c1cc2c3c(c1)C1C=CCC1CN3CC1CC=CC21 (stereo unspecified) | 0.277 | 0.623
COc1ccc(NC(=O)Cc2c(O)c3ccccc3[nH]c2=O)cc1 | 0.266 | 0.634
CC(=O)N1CCN(Cc2cc(C(C)(C)C)cc(C(C)(C)C)c2O)CC1 | 0.234 | 0.65
O=C(CN1CCCCCC1)N1c2ccccc2Sc2ccc(Cl)cc21 | 0.244 | 0.612
CC(=O)c1ccc(N2CCN(c3cnccn3)CC2)cc1 | 0.267 | 0.625
CC1CCN(C(=O)c2ccc(Cl)c(Cl)c2)CC1 | 0.245 | 0.623
CS(=O)(=O)N1CCN(c2ccc([N+](=O)[O-])cc2Cl)CC1 | 0.245 | 0.614
O=C(Nc1nc2ccccc2n1CCN1CCCCC1)c1ccccc1 | 0.237 | 0.602
Cc1nc(SCC(N)=O)c(C#N)c(C)c1C | 0.274 | 0.642
CN(C)c1ccc(CN2CCC(O)CC2)cc1 | 0.25 | 0.635
CCCN1CCC(NN2CCOCC2)CC1 | 0.258 | 0.612

SMILES | plate-normalized OD600 growth (temperature: 15°C, 48 h) | plate-normalized OD600 growth (temperature: 37°C, 24 h)
Cc1nc([N+](=O)[O-])c(N2CCOCC2)n1Cc1ccccc1 | 0.259 | 0.623
O=C(NN1C(=O)c2ccccc2C1=O)c1cc(O)cc(O)c1 | 0.26 | 0.611
CN(C)CCNCC12CC3CC(CC(C3)C1)C2 | 0.248 | 0.617
Cc1ccc(OCCSc2nc(C)cc(=O)[nH]2)cc1 | 0.241 | 0.624
Cc1cc(C)c(N2CCC(=O)N2)c(C)c1 | 0.23 | 0.617
CCC(C)NC(=O)C(=O)Nc1ccccc1OC (stereo unspecified) | 0.259 | 0.616
CC(C)(C)NS(=O)(=O)c1ccccc1[N+](=O)[O-] | 0.251 | 0.613
N#CC1=C(N)OC2=C(C(=O)CC(c3ccccc3)C2)C1c1ccsc1 (stereo unspecified) | 0.25 | 0.622
COc1ccc2c(Cl)c(C(=O)N3CCCCC3)sc2c1 | 0.258 | 0.657
O=C(Nc1cccc(Cl)c1)Nc1cccc2cccnc12 | 0.252 | 0.605
Nc1cc(S(=O)(=O)c2ccc(Cl)cc2)ccc1Cl | 0.244 | 0.58
Cc1ccc2c(N)c(C(=O)c3ccc([N+](=O)[O-])cc3)sc2n1 | 0.273 | 0.656
O=C(NC1C[C@@H]1c1ccccc1)[C@@H]1CC1c1ccccc1 (stereo partly specified) | 0.272 | 0.63
CC1=C(C#N)C(c2ccccc2F)C2=C(CCCC2=O)N1 (stereo unspecified) | 0.244 | 0.606
CC1CCC(NCCN2CCCCC2)CC1 (stereo unspecified) | 0.275 | 0.656
NC1CCCc2c1[nH]c1ccc([N+](=O)[O-])cc21 (stereo unspecified) | 0.173 | 0.552
CC(=O)c1ccc(S(=O)(=O)N2CCOCC2)cc1 | 0.244 | 0.643
O=[N+]([O-])C1=C(Nc2ccccc2O)CS(=O)(=O)C1 | 0.241 | 0.621
O=C(C(c1ccccc1)c1ccccc1)N1CCCC1 | 0.262 | 0.596
Cc1ccc(-c2csc(C(C#N)=Cc3ccc(N(C)C)cc3)n2)cc1 | 0.235 | 0.626
O=[N+]([O-])c1ccc(-c2nnc(-c3ccccc3Cl)o2)cc1 | 0.244 | 0.601
Cc1ccc2c(c1)NC(c1cccs1)C1=C(CC(C)(C)CC1=O)N2 (stereo unspecified) | 0.241 | 0.635

Three structures already listed, arranged by length of the SMILES, smallest number first.
SMILES | plate-normalized OD600 growth (temperature: 15°C, 48 h) | plate-normalized OD600 growth (temperature: 37°C, 24 h)
COc1ccc2c(Cl)c(C(=O)N3CCCCC3)sc2c1 | 0.258 | 0.657
O=[N+]([O-])C1=C(Nc2ccccc2O)CS(=O)(=O)C1 | 0.241 | 0.621
O=[N+]([O-])c1ccc(-c2nnc(-c3ccccc3Cl)o2)cc1 | 0.244 | 0.601

Following part

SMILES | plate-normalized OD600 growth (temperature: 15°C, 48 h) | plate-normalized OD600 growth (temperature: 37°C, 24 h)
N#C/C(=C\c1ccc(Br)o1)c1nc(-c2ccccc2)cs1 | 0.246 | 0.6
CC(C)(C)S(=O)(=O)c1cccc(S(=O)(=O)C(C)(C)C)c1 | 0.259 | 0.612
O=[N+]([O-])c1cccc(C2NCCc3c2[nH]c2ccccc32)c1 (stereo unspecified) | 0.248 | 0.602
Clc1ccccc1N1CCN(Cc2ccc(Br)o2)CC1 | 0.245 | 0.606
CCC(O)C#CC(C)(O)CCC=C(C)C (stereo unspecified) | 0.245 | 0.606
CCN(CC)S(=O)(=O)C1CCS(=O)(=O)C1 (stereo unspecified) | 0.242 | 0.611
Cc1cccc(C2NCCc3c2[nH]c2ccccc32)c1 (stereo unspecified) | 0.244 | 0.606
Cc1occc1C(=O)NCc1ccccc1 | 0.25 | 0.62
O=C(O)c1cccc(Nc2nc(-c3ccncc3)cs2)c1 | 0.262 | 0.629
COc1ccccc1C1C(C#N)=C(N)Oc2cc(O)c(Cl)cc21 (stereo unspecified) | 0.261 | 0.618
Brc1ccc(CN2CCN(c3ccccn3)CC2)cc1 | 0.267 | 0.614
O=[N+]([O-])c1ccc(N2CCN(Cc3ccc(Br)s3)CC2)cc1 | 0.242 | 0.58
COc1ccc(N2C(=O)CCc3c(-c4ccccc4)cc(N(C)C)cc32)cc1 | 0.236 | 0.647
OC1CCN(Cc2ccc3c(c2)OCO3)CC1 | 0.261 | 0.606
Cc1ccc(S(=O)(=O)NCCCN2CCOCC2)cc1 | 0.248 | 0.631
Cc1cc(C)n(S(=O)(=O)c2ccc(Cl)cc2)n1 | 0.251 | 0.634
CCN(CC)S(=O)(=O)c1cccc(C(=O)NCc2ccccc2)c1 | 0.254 | 0.636
CC(C)=CCCC(C)CN1CCN(CCOCCO)CC1 (stereo unspecified) | 0.281 | 0.636
c1nc(NC2CCCCC2)c2c3c(sc2n1)CCCC3 | 0.258 | 0.626
COc1ccc(COCC(O)CN2CCCCC2)cc1OC (stereo unspecified) | 0.245 | 0.615
Cc1n[nH]c(C)c1CCCCOc1ccc(Br)cc1 | 0.216 | 0.601
CC(CC#CCN1CCCC1)OCCC#N (stereo unspecified) | 0.244 | 0.619

SMILES | plate-normalized OD600 growth (temperature: 15°C, 48 h) | plate-normalized OD600 growth (temperature: 37°C, 24 h)
O=[N+]([O-])c1ccc2nc(N3CCOCC3)sc2c1 | 0.234 | 0.626
Nc1nnc(-c2ccc(F)cc2)s1 | 0.259 | 0.63
CC(C)(O)C#Cc1ccc(C(=O)N2CCC(Cc3ccccc3)CC2)cc1 | 0.244 | 0.622
CCOC(=O)N1CCN(c2cc(N3CCCCC3)c(F)cc2[N+](=O)[O-])CC1 | 0.259 | 0.654
O=C1CCC(C(=O)N2CCN(Cc3ccccc3)CC2)N1 (stereo unspecified) | 0.267 | 0.661
NS(=O)(=O)c1ccc(NC(=O)c2ccccc2Br)cc1 | 0.242 | 0.641
CCCOc1ccc(N2C(=O)CC(Nc3ccc(OC)cc3)C2=O)cc1 (stereo unspecified) | 0.235 | 0.593
COc1ccc(-n2cccc2C=O)cc1 | 0.253 | 0.613
Ic1ccc(NCc2cn3ccccc3n2)cc1 | 0.248 | 0.617
N#C/C(=C\c1ccccc1F)c1nc(-c2cccs2)cs1 | 0.252 | 0.662
c1ccc2sc(-c3ccc4c(c3)OCO4)nc2c1 | 0.241 | 0.578
c1ccc(Nc2n[nH]nc2-c2ccccc2)cc1 | 0.239 | 0.64
CCCCOC(=O)Nc1ccc(I)cc1 | 0.259 | 0.618
Clc1ccccc1-c1cn2ccsc2n1 | 0.246 | 0.615
O=C1CCCC2=C1C(c1ccc(F)cc1)Nc1ccc3ncccc3c12 (stereo unspecified) | 0.248 | 0.639
c1ccc(C2CCC(N3CCN(Cc4cccnc4)CC3)CC2)cc1 (stereo unspecified) | 0.25 | 0.62
Cc1ccc(C23CC4CC(CC(C(=O)NN)(C4)C2)C3)cc1 | 0.239 | 0.607
C=CCSC1=C(C#N)C2(CCCC2)C(C#N)C(=O)N1 (stereo unspecified) | 0.243 | 0.606
Cc1cc(-c2ccccc2)nc2cc(C(N)=O)nn12 | 0.247 | 0.614
CC(=O)Nc1cccc(NS(=O)(=O)c2ccc(Cl)cc2)c1 | 0.263 | 0.638
O=[N+]([O-])c1ccc(N2CCN(CCO)CC2)c(Cl)c1 | 0.25 | 0.61
COc1ccc(C2C(=C(O)c3ccccc3)C(=O)C(=O)N2CCCO)cc1OC (stereo unspecified) | 0.243 | 0.609

SMILES | plate-normalized OD600 growth (temperature: 15°C, 48 h) | plate-normalized OD600 growth (temperature: 37°C, 24 h)
COc1ccc(OC)c(C2C(C#N)=C(C)NC3=C2C(=O)CCC3)c1 (stereo unspecified) | 0.246 | 0.629
COc1ccc(CNCCC2CCOC(C)(C)C2)cc1 (stereo unspecified) | 0.263 | 0.65
Cc1ccc(-c2csc(Nc3ccc(F)cc3)n2)cc1C | 0.218 | 0.604
O=C(NCc1ccccc1)c1ccc(Br)c(S(=O)(=O)N2CCOCC2)c1 | 0.248 | 0.607
O=C(Nc1ccc(Cl)c(Cl)c1)[C@@H]1C2C=CC(C2)[C@@H]1C(=O)O (stereo partly specified) | 0.246 | 0.607
O=C(Cn1cncn1)c1ccccc1Cl | 0.256 | 0.624
O=C(COc1ccc(Br)cc1)Nc1ccc(F)cc1F | 0.254 | 0.626
CCn1c2ccccc2c2cc(CN3CCC(O)CC3)ccc21 | 0.248 | 0.602
COc1ccc2c(c1)nc(NCCO)n2C | 0.235 | 0.624
Brc1ccc(CN2CCN(Cc3ccc4c(c3)OCO4)CC2)s1 | 0.262 | 0.639
O=C(NCc1ccccc1)c1cccc(Br)c1 | 0.253 | 0.603
O=C(N1CCOCC1)C(O)(c1ccccc1)c1ccccc1 | 0.282 | 0.642
CCN(CC)c1ccc(/C=C(\C#N)c2nc3ccccc3s2)cc1 | 0.249 | 0.619
CCN(CC)C(=O)C1CCCN(Cc2cccc(Br)c2)C1 (stereo unspecified) | 0.244 | 0.623
O=c1[nH]cnc2nc(N3CCOCC3)[nH]c12 | 0.27 | 0.632
CS(=O)(=O)N1CCN(c2ccc([N+](=O)[O-])c(N3CCCC3)c2)CC1 | 0.253 | 0.623
C=CCNC(=O)c1ccc(CN2CCc3ccccc3C2)cc1 | 0.217 | 0.6
COc1ccc(CN2CCCN(C)CC2)cc1Br | 0.229 | 0.632
COc1ccc(S(=O)(=O)N2CCN(Cc3cccc(F)c3)CC2)cc1 | 0.245 | 0.614
COc1ccc(NS(=O)(=O)c2ccc(F)cc2)cc1 | 0.228 | 0.65
